According to the supplement of paper PMC4635364:
Where a name gives a salt, the structure may show the parent alone. The list shows a part of the results. Single values are uncertain here, since repeats match poorly.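 Cells: ReNCell VM human fetal ventral-midbrain neural progenitors, differentiated mitogen-free. Blinded raters compared doublecortin-stained (early neurons) or tyrosine hydroxylase-stained (dopaminergic neurons) images with untreated wells, where 0 means no change. After repeats and both raters were averaged, compounds scoring 2 or above became hits for retesting.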

The molecules below were run on ReNCell VM (assay: neuronal differentiation score (DCX+ cell fraction vs untreated, manual image score) (score (-3 to 3)); higher = more neuronal differentiation). Details: library: LOPAC; 2 uM; 2 weeks.

Row | SMILES | neuronal differentiation score
1 | C[C@H]1O[C@@H](C[N+](C)(C)C)CS1 | inactive: -1
2 | CC(C)C[C@H]1C(=O)N2CCC[C@H]2[C@]2(O)O[C@](NC(=O)[C@@H]3C=C4c5cccc6[nH]c(Br)c(c56)C[C@H]4N(C)C3)(C(C)C)C(=O)N12 [(+)-Bromocriptine methanesulfonate] | inactive: 0
3 | C[C@]12CC[C@@H](O)C[C@@H]1CC[C@@H]1[C@@H]2CC[C@]2(C)[C@@H](C(=O)CO)CC[C@@H]12 [3-alpha,21-Dihydroxy-5-alpha-pregnan-20-one] | inactive: 0
4 | NCCc1ccc(O)cc1 [4-Hydroxyphenethylamine hydrochloride] | inactive: 0
5 | Cc1[nH]c2ccc(O)cc2c1CCN [2-Methyl-5-hydroxytryptamine maleate] | inactive: 0
6 | NC1CCc2cc(O)c(O)cc2C1 (stereo not drawn) [6,7-ADTN hydrobromide] | inactive: 0
7 | O=[N+]([O-])c1ccc2nc(N3CCNCC3)ccc2c1 [Quipazine, 6-nitro-, maleate] | inactive: 0

Same assay, conditions: library: Phytochemical; 2 uM; 2 weeks

Row | SMILES | neuronal differentiation score
8 | COc1cc2c(cc1O)C[C@H]1c3c(cc(O)c(OC)c3-2)CCN1C [Boldine] | inactive: -1
9 | CCN1C[C@]2(C)CC[C@H](O)[C@]34C1[C@@H](C[C@H]23)[C@@]1(O)C[C@H](OC)[C@H]2C[C@@H]4[C@@H]1[C@H]2O [Karakoline] | inactive: 0
10 | COc1ccc(CC2c3cc(OC)c(OC)cc3CCN2C)cc1OC (racemic) [Laudanosine (R,S)] | inactive: 0
11 | CS(=N)(=O)CC[C@H](N)C(=O)O (stereo partly drawn) [Methionine sulfoximine (L)] | inactive: 0
12 | O=c1cccc2n1C[C@@H]1CNC[C@H]2C1 [Cytisine nitrate hydrate] | inactive: 0
13 | C[C@@H](CO)NC(=O)[C@@H]1C=C2c3cccc4[nH]cc(c34)C[C@H]2N(C)C1 [Ergobasine] | inactive: 0
14 | c1ccc2c(c1)[nH]c1cnccc12 [Norharman] | inactive: 0

Rewritten in markdown: 3 of the compounds above.

| Row | SMILES | neuronal differentiation score |
| --- | --- | --- |
| 10 | COc1ccc(CC2c3cc(OC)c(OC)cc3CCN2C)cc1OC (racemic) [Laudanosine (R,S)] | inactive: 0 |
| 11 | CS(=N)(=O)CC[C@H](N)C(=O)O (stereo partly drawn) [Methionine sulfoximine (L)] | inactive: 0 |
| 12 | O=c1cccc2n1C[C@@H]1CNC[C@H]2C1 [Cytisine nitrate hydrate] | inactive: 0 |

Same assay, conditions: library: Prestwick; 2 uM; 2 weeks

Row | SMILES | neuronal differentiation score
15 | CC(=O)O[C@H]1C[C@H](O[C@H]2[C@@H](O)C[C@H](O[C@H]3[C@@H](O)C[C@H](O[C@H]4CC[C@@]5(C)[C@H](CC[C@@H]6[C@@H]5C[C@@H](O)[C@]5(C)[C@@H](C7=CC(=O)OC7)CC[C@]65O)C4)O[C@@H]3C)O[C@@H]2C)O[C@H](C)[C@H]1O[C@@H]1O[C@H](CO)[C@@H](O)[C@H](O)[C@H]1O [Lanatoside C] | inactive: 0
16 | CCCN1C[C@H](CSC)C[C@@H]2c3cccc4[nH]cc(c34)C[C@H]21 [Pergolide mesylate] | inactive: 0
17 | CC(O)(CS(=O)(=O)c1ccc(F)cc1)C(=O)Nc1ccc(C#N)c(C(F)(F)F)c1 (stereo not drawn) [Bicalutamide] | inactive: 0
18 | C=C1CC[C@@]2(O)[C@H]3Cc4ccc(O)c5c4[C@@]2(CCN3CC2CC2)[C@H]1O5 [Nalmefene hydrochloride] | inactive: 0
